{"source": "ChEMBL document CHEMBL4513155", "about": "“CO-ADD screening of University of Sydney (Australia) compounds” (2021)", "note": "The list shows a part of the results. Results with a measured potency or affinity are listed apart."}
{"tested_on": "Acinetobacter baumannii", "details": "Concentration 32 ug.mL-1; ASSAY_TEST Inhibition of Bacterial Growth; detection method Absorption (OD600); MEDIA CAMHB; plate type 384well; NBS; CORNING #3640; time 18 hr", "units": {"Inhibition": "%"}}
{"smiles": "CCN1C(=O)c2cccc3c(-c4cn(CCN5CCCNCCN(CCn6cc([C@]7(O)CC[C@H]8[C@@H]9CCc%10cc(O)ccc%10[C@H]9CC[C@@]87C)nn6)CCCNCC5)nn4)ccc(c23)C1=O.OCCN1CCN(CCCN2c3ccccc3Sc3ccc(Cl)cc32)CC1.[O-][Cl+3]([O-])([O-])[O-].[O-][Cl+3]([O-])([O-])[O-].[Zn+2]", "Inhibition": -1.2}
{"smiles": "CN(C)C(COc1cncc2nnc(-c3ccc(C#N)cc3)n12)c1ccc(F)c(F)c1", "note": "(configuration not stated)", "Inhibition": 1.96}
{"smiles": "O.O=C1c2cccc3c(-n4cc(CN5CCCNCCN(Cc6cn(-c7ccc8c9c(cccc79)C(=O)N(CCCO)C8=O)nn6)CCCNCC5)nn4)ccc(c23)C(=O)N1CCCO.[Cl-].[Cl-].[Zn+2]", "Inhibition": 9.8}
{"smiles": "Fc1ccc(CCOc2cncc3nnc(-c4ccc(C(F)(F)F)nc4)n23)cc1F", "Inhibition": 0}
{"smiles": "COC(COc1cncc2nnc(-c3ccc(C#N)cc3)n12)c1ccc(F)c(F)c1", "note": "(configuration not stated)", "Inhibition": -2.77}
{"smiles": "Fc1ccc(CCOc2cncc3nnc(-c4ccc(Cl)cc4)n23)cc1F", "Inhibition": -3.21}
{"smiles": "N#Cc1ccc(-c2nnc3cncc(OCC(O)c4ccc(F)c(F)c4)n23)cc1", "note": "(configuration not stated)", "Inhibition": -3.62}
